The data set in a line: Reversibility of noncovalent and covalent dye-albumin interaction in acid/base cycles. Type of data set: physicochemical.

“1:6 Sq-BSA complex: complex of squaraine dye Sq with BSA protein in ratio 1:6”: the “number of acid-base cycles with switching observed” value (pH 5.8 to 7.4) was “at least for four cycles”. Also, where the note is “pH 5.8 to 7.4, acid/base additions, 700 nm and 480 nm emission”, the “reversibility of noncovalent/covalent interaction” value was “highly reversible”.

Values taken from patent publication US9791451B2, “Squaraine based fluorescent probe and a process for the preparation thereof” (Council of Scientific & Industrial Research, priority 2013, dated 2017).
